We go through twelve compounds from PubChem BioAssay AID226 (DTP/NCI, 2004).

Each structure is given as a SMILES string. The list is a part of this screen's results and no random one: it is rich in T/C values a quarter to a half above the control, in often repeated tests (any T/C) and in doses without a T/C. Other doses and runs of a compound stand elsewhere. T/C gives the treated animals as a percentage of the vehicle group. Some entries give survivors of the animals treated and no T/C: the source holds a T/C of zero for them, seemingly a mark for toxic or unscored doses. Some survivor counts are full or nearly so, which does not show that the dose was tolerated: the source hardly ever lists a survival T/C far under the control, and the zero likely stands for such cases as well. Counts of survivors are from the toxicity check (mostly the fifth day) where no day follows; animals may have died later. Schedules are NCI's codes, taken here to give the interval after Q, in days (D) or hours (H), and the number of doses after X. Marks such as (2×) stand for listed records that agree. Some entries hold several experiments; the values are given in rising order. For survival time, the PubChem record calls one and a half times the control and up active, and a quarter to a half above the control has no call in these data; cut-offs in other NCI protocols can differ. Some T/C values carry the count of animals alive at the toxicity check (mostly the fifth day); without a count, all were alive then.

This assay has as its system B6C3F1 mice, intracerebral ependymoblastoma, median survival T/C. Kind of assay: NCI In Vivo Anticancer Drug Screen. Data for tumor model Ependymoblastoma (intracerebral) in B6C3F1 mice. The note with it: T/C endpoint: median survival time, higher T/C = longer survival. The procedure: The antitumor activity of compounds was measured in mice bearing transplantable tumors. Survival or tumor size were measured and the results are expressed as the measurement made in the treated group (T) divided by the measurement made in the vehicle treated control group (C). The tumor model used in this assay is Ependymoblastoma (intracerebral) in B6C3F1 mice

Where [1] appears, read: dose: 16.0 mg/kg/injection, schedule: Q01DX005 (ip), vehicle: suspension in saline.
Where [2] appears, read: dose: 256.0 mg/kg/injection, schedule: Q01DX005 (ip), vehicle: Klucel (hydroxypropylcellulose) (HPC).

As for `O=NN(CCCl)C(=O)NC1CCC(=O)NC1=O` (stereo not drawn), the T/C is, setting by setting: (dose: 0.5 mg/kg/injection, schedule: Q01DX005 (ip), vehicle: saline) 115 (2×), 117, 132 % of control; (dose: 0.5 mg/kg/injection, schedule: Q01DX005 (ip), vehicle: suspension in saline) 126 % of control; (dose: 0.5 mg/kg/injection, schedule: Q01DX009 (ip), vehicle: saline with Tween-80) 128 % of control [9 of 10 alive]; (dose: 1.0 mg/kg/injection, schedule: Q01DX005 (ip), vehicle: saline with Tween-80) 134 % of control; (dose: 1.0 mg/kg/injection, schedule: Q01DX005 (ip), vehicle: saline) 118, 135, 147, 153 % of control; (dose: 2.0 mg/kg/injection, schedule: Q01DX001 (ip), vehicle: saline + alcohol) 125 % of control. The T/C reads like this: (dose: 2.0 mg/kg/injection, schedule: Q01DX005 (ip), vehicle: Klucel (hydroxypropylcellulose) (HPC)) 127 % of control [9 of 10 alive]; (dose: 2.0 mg/kg/injection, schedule: Q01DX005 (ip), vehicle: saline) 157, 180, 181, 250 % of control; (dose: 2.0 mg/kg/injection, schedule: Q01DX005 (ip), vehicle: suspension in saline) 128 % of control; (dose: 4.0 mg/kg/injection, schedule: Q01DX005 (ip), vehicle: saline) 238, 250, 294, 363 % of control; (dose: 4.32 mg/kg/injection, schedule: Q01DX001 (ip), vehicle: Klucel (hydroxypropylcellulose) (HPC)) 144 % of control; (dose: 8.0 mg/kg/injection, schedule: Q01DX005 (ip), vehicle: saline) 117, 123, 184, 362 % of control. The T/C (dose: 16.0 mg/kg/injection, schedule: Q01DX001 (ip), vehicle: suspension in saline) was 134 % of control. Also, the survivor count (dose: 4.0 mg/kg/injection, schedule: Q01DX009 (ip), vehicle: saline with Tween-80) is recorded as 9 of 9; the survivor count (dose: 8.0 mg/kg/injection, schedule: Q01DX009 (ip), vehicle: saline with Tween-80) is listed as 8 of 9; the survivor count (dose: 16.0 mg/kg/injection, schedule: Q01DX005 (ip), vehicle: Klucel (hydroxypropylcellulose) (HPC)) was 7 of 10; the survivor count (dose: 16.0 mg/kg/injection, schedule: Q01DX005 (ip), vehicle: saline) is 9 of 10 and 10 of 10; the survivor count under setting [1] is given as 10 of 10; the survivor count (dose: 16.0 mg/kg/injection, schedule: Q01DX009 (ip), vehicle: saline with Tween-80) was 10 of 10. The survivor count by setting is: (dose: 20.0 mg/kg/injection, schedule: Q01DX005 (ip), vehicle: Klucel (hydroxypropylcellulose) (HPC)) 8 of 10 on day 6; (dose: 64.0 mg/kg/injection, schedule: Q01DX001 (ip), vehicle: DMSO) 8 of 10.
Take `COc1cc([C@@H]2c3cc4c(cc3[C@@H](OC3OC5COC(C)OC5C(O)C3O)[C@H]3COC(=O)[C@H]23)OCO4)cc(OC)c1O` (stereo partly drawn): the T/C is 127 % of control (dose: 8.0 mg/kg/injection, schedule: Q01DX005 (ip), vehicle: suspension in saline, evaluated on day 45); 127 % of control (dose: 8.0 mg/kg/injection, schedule: Q01DX005 (ip), vehicle: suspension in saline, evaluated on day 60); 132 % of control under setting [1]. Further, the survivor count runs as follows: (dose: 32.0 mg/kg/injection, schedule: Q01DX005 (ip), vehicle: suspension in saline) 10 of 10; (dose: 64.0 mg/kg/injection, schedule: Q01DX005 (ip), vehicle: suspension in saline) 6 of 10.
With `O=[n+]1c2ccccc2n([O-])c2cc(Cl)ccc21`, the survivor count by setting is: (dose: 200.0 mg/kg/injection, schedule: Q01DX005 (ip), vehicle: saline with Tween-80) 10 of 10; (dose: 400.0 mg/kg/injection, schedule: Q01DX005 (ip), vehicle: saline with Tween-80) 0 of 10.
On to `CCOC(=O)CNC(=O)CCCCSc1ncnc2nc[nH]c12`, for which the survivor count reads like this: under setting [2], 10 of 10; (dose: 1024.0 mg/kg/injection, schedule: Q01DX001 (oral), vehicle: Klucel (hydroxypropylcellulose) (HPC)) 10 of 10; (dose: 2048.0 mg/kg/injection, schedule: Q01DX005 (ip), vehicle: saline) 10 of 10.
Turning to `NC(=O)c1csc(C2OC(CO)C(O)C2O)n1` (stereo not drawn), the T/C by setting is: (dose: 300.0 mg/kg/injection, schedule: Q01DX009 (ip), vehicle: saline) 137 % of control; (dose: 600.0 mg/kg/injection, schedule: Q01DX009 (ip), vehicle: saline) 132 % of control.
Turning to `CCC(=O)O[C@H]1CC[C@H]2[C@@H]3CCC4=CC(=O)CC[C@]4(C)[C@H]3CC[C@]12C`, the survivor count (dose: 32.0 mg/kg/injection, schedule: Q01DX005 (ip), vehicle: Klucel (hydroxypropylcellulose) (HPC)) was 6 of 6; the survivor count (dose: 64.0 mg/kg/injection, schedule: Q01DX005 (ip), vehicle: Klucel (hydroxypropylcellulose) (HPC)) is on record as 6 of 6; the survivor count under setting [2] is on record as 6 of 6.
As for `COc1cc(NC(=O)CN(CCCl)CCCl)cc(OC)c1OC`, the survivor count runs as follows: (dose: 100.0 mg/kg/injection, schedule: Q01DX009 (ip), vehicle: saline with Tween-80) 10 of 10; (dose: 200.0 mg/kg/injection, schedule: Q01DX009 (ip), vehicle: saline with Tween-80) 7 of 10.
With `Nc1nc(=S)c2ncn(C3CC(O)C(CO)O3)c2[nH]1` (stereo not drawn), the survivor count (dose: 8.0 mg/kg/injection, schedule: Q01DX005 (ip), vehicle: saline with Tween-80) was 10 of 10 and the survivor count (dose: 16.0 mg/kg/injection, schedule: Q01DX005 (ip), vehicle: saline with Tween-80) was 10 of 10.
Turning to `CCC(C)Sc1nc(N)nc2c1ncn2C1OC(CO)C(O)C1O` (stereo not drawn), the T/C (dose: 150.0 mg/kg/injection, schedule: Q01DX005 (ip), vehicle: Klucel (hydroxypropylcellulose) (HPC)) was 134 % of control.
As for `O=NN(CCCl)C(=O)NC1CCCN(Cc2ccccc2)C1` (stereo not drawn), the T/C is 126 % of control (dose: 12.5 mg/kg/injection, schedule: Q01DX001 (ip), vehicle: distilled water + Tween-80) and 129 % of control (dose: 25.0 mg/kg/injection, schedule: Q01DX001 (ip), vehicle: distilled water + Tween-80). Besides, the survivor count (dose: 200.0 mg/kg/injection, schedule: Q01DX001 (ip), vehicle: distilled water + Tween-80) is 5 of 10.
Regarding `S=P(N1CC1)(N1CC1)N1CC1.[Cl-].[Cl-].[NH2-].[NH2-].[Pt+4]`, where the note is “dose: 3.0 mg/kg/injection, schedule: Q01DX005 (ip), vehicle: dextrose”, the T/C was 148 % of control [9 of 10 alive]. Moreover, the survivor count is 10 of 10 (dose: 6.0 mg/kg/injection, schedule: Q01DX005 (ip), vehicle: dextrose); 10 of 10 (2×) (dose: 12.0 mg/kg/injection, schedule: Q01DX005 (ip), vehicle: dextrose); 4 of 10 and 7 of 10 (dose: 24.0 mg/kg/injection, schedule: Q01DX005 (ip), vehicle: dextrose); 2 of 10 (2×) (dose: 48.0 mg/kg/injection, schedule: Q01DX005 (ip), vehicle: dextrose).
For `COC(=O)C(Cc1ccc(N(CCCl)CCCl)cc1)N=NNc1nc[nH]c1C(N)=O` (stereo not drawn), the T/C is 131 % of control (dose: 32.0 mg/kg/injection, schedule: Q01DX005 (ip), vehicle: saline with Tween-80); 145 % of control (dose: 64.0 mg/kg/injection, schedule: Q01DX005 (ip), vehicle: saline with Tween-80, evaluated on day 45); 131 % of control (dose: 64.0 mg/kg/injection, schedule: Q01DX005 (ip), vehicle: saline with Tween-80, evaluated on day 60). The survivor count (dose: 128.0 mg/kg/injection, schedule: Q01DX005 (ip), vehicle: saline with Tween-80) is recorded as 9 of 10.
